One molecule from publication PMC4831274 can be followed below.

These are yes or no findings as the source states them, for the method shown. In cells and extracts the contact can be indirect. Binding calls can cover weak binding; strength is not graded here. Where a sequence is shown, tags or fusion partners need not be part of it.

For the experiment, the target named is GST-LD1 fusion protein (paxillin leucine-rich motif 1). Nature of the experiment: pull-down; purified recombinant GST-LD1 used to pull down FLAG-MEKK2 from transfected 293T cell lysates; compared with GST alone; only the target purified.

B1: FLAG-tagged wild-type full-length MEKK2 (MEK kinase 2) (enzyme, UniProt Q9Y2U5 1-619)
chain: MDDQQALNSIMQDLAVLHKASRPALSLQETRKAKSSSPKKQNDVRVKFEHRGEKRILQFPRPVKLEDLRSKAKIAFGQSMDLHYTNNELVIPLTTQDDLDKAVELLDRSIHMKSLKILLVINGSTQATNLEPLPSLEDLDNTVFGAERKKRLSIIGPTSRDRSSPPPGYIPDELHQVARNGSFTSINSEGEFIPESMDQMLDPLSLSSPENSGSGSCPSLDSPLDGESYPKSRMPRAQSYPDNHQEFSDYDNPIFEKFGKGGTYPRRYHVSYHHQEYNDGRKTFPRARRTQGTSLRSPVSFSPTDHSLSTSSGSSIFTPEYDDSRIRRRGSDIDNPTLTVMDISPPSRSPRAPTNWRLGKLLGQGAFGRVYLCYDVDTGRELAVKQVQFDPDSPETSKEVNALECEIQLLKNLLHERIVQYYGCLRDPQEKTLSIFMEYMPGGSIKDQLKAYGALTENVTRKYTRQILEGVHYLHSNMIVHRDIKGANILRDSTGNVKLGDFGASKRLQTICLSGTGMKSVTGTPYWMSPEVISGEGYGRKADIWSVACTVVEMLTEKPPWAEFEAMAAIFKIATQPTNPKLPPHVSDYTRDFLKRIFVEAKLRPSADELLRHMFVHYH
B1: the binding entry is recorded as “binds”.
